Measurements published in PubChem BioAssay AID190 (DTP/NCI, 2004).
The list is a part of this screen's results and no random one: it gathers some chemical classes. Other doses and runs of a compound may be missing. T/C is the treated group as % of the vehicle group. Some doses have a count of surviving animals in place of a T/C: the source holds a T/C of zero for them, seemingly a mark for toxic or unscored doses. Some survivor counts are full or nearly so, which does not show that the dose was tolerated: the source hardly ever lists a survival T/C far under the control, and the zero likely stands for such cases as well. Survivors were counted at the toxicity check, usually on the fifth day, unless a day is given; later deaths do not show. Schedule codes are those of the source, taken here to give the interval after Q, in days (D) or hours (H), and the number of doses after X. Signs of the kind (2×) count equal records among those shown. Some entries were tested several times; their values stand side by side, smallest first. For survival time, the PubChem record calls one and a half times the control and up active, and a quarter to a half above the control has no call in these data; cut-offs in other NCI protocols can differ. Some T/C values carry the count of animals alive at the toxicity check (mostly the fifth day); where neither a count nor a note follows, no animal had died by that day.

Test system: AKR/Lw mice, AKR lymphoma ip, median survival T/C
Test: NCI In Vivo Anticancer Drug Screen. Data for tumor model Lymphoma AKR (Transplanted) (intraperitoneal) in AKR/Lw mice
Details: T/C endpoint: median survival time, higher T/C = longer survival
Procedure: The antitumor activity of compounds was measured in mice bearing transplantable tumors. Survival or tumor size were measured and the results are expressed as the measurement made in the treated group (T) divided by the measurement made in the vehicle treated control group (C). The tumor model used in this assay is Lymphoma AKR (Transplanted) (intraperitoneal) in AKR/Lw mice

[1] = dose: 300.0 mg/kg/injection, schedule: Q01DX001 (ip), vehicle: Klucel (hydroxypropylcellulose) (HPC)
[2] = dose: 300.0 mg/kg/injection, schedule: Q04DX003 (ip), vehicle: Klucel (hydroxypropylcellulose) (HPC)
[3] = dose: 300.0 mg/kg/injection, schedule: Q04DX003 (ip), vehicle: saline
[4] = dose: 400.0 mg/kg/injection, schedule: Q04DX003 (ip), vehicle: Klucel (hydroxypropylcellulose) (HPC)
[5] = dose: 500.0 mg/kg/injection, schedule: Q01DX001 (ip), vehicle: Klucel (hydroxypropylcellulose) (HPC)
[6] = dose: 500.0 mg/kg/injection, schedule: Q01DX001 (ip), vehicle: saline

With NC(=O)c1[nH]cnc1/N=N\N(CCCl)CCCl the T/C (dose: 130.0 mg/kg/injection, schedule: Q01DX001 (ip), vehicle: Klucel (hydroxypropylcellulose) (HPC), evaluated on day 60) was 126 % of control, the T/C (dose: 150.0 mg/kg/injection, schedule: Q04DX003 (ip), vehicle: Klucel (hydroxypropylcellulose) (HPC), evaluated on day 30) was 107 % of control and the T/C (dose: 150.0 mg/kg/injection, schedule: Q04DX003 (ip), vehicle: Klucel (hydroxypropylcellulose) (HPC), evaluated on day 60) was 89, 109, 138 % of control. The T/C (dose: 150.0 mg/kg/injection, schedule: Q04DX003 (ip), vehicle: saline) was 88 % of control, the T/C (dose: 160.0 mg/kg/injection, schedule: Q01DX001 (ip), vehicle: Klucel (hydroxypropylcellulose) (HPC), evaluated on day 5) was 114 % of control and the T/C (dose: 160.0 mg/kg/injection, schedule: Q01DX001 (ip), vehicle: Klucel (hydroxypropylcellulose) (HPC), evaluated on day 60) was 114 % of control. For the same compound, the survivor count (dose: 175.0 mg/kg/injection, schedule: Q04DX003 (ip), vehicle: Klucel (hydroxypropylcellulose) (HPC)) was 10 of 10, the T/C (dose: 200.0 mg/kg/injection, schedule: Q01DX001 (ip), vehicle: Klucel (hydroxypropylcellulose) (HPC), evaluated on day 5) was 117 % of control and the T/C (dose: 200.0 mg/kg/injection, schedule: Q01DX001 (ip), vehicle: Klucel (hydroxypropylcellulose) (HPC), evaluated on day 60) was 102, 104 [9 of 10 alive], 110, 114, 117, 141 % of control. For the same compound, the T/C (dose: 200.0 mg/kg/injection, schedule: Q01DX001 (ip), vehicle: saline with Tween-80) was 111 % of control, the T/C (dose: 200.0 mg/kg/injection, schedule: Q01DX001 (ip), vehicle: saline, evaluated on day 45) was 107 % of control and the T/C (dose: 200.0 mg/kg/injection, schedule: Q01DX001 (ip), vehicle: saline, evaluated on day 60) was 111, 125, 128, 138 % of control. For the same compound, the T/C (dose: 200.0 mg/kg/injection, schedule: Q01DX009 (ip), vehicle: saline) was 89 % of control [9 of 10 alive], the T/C (dose: 200.0 mg/kg/injection, schedule: Q04DX003 (ip), vehicle: Klucel (hydroxypropylcellulose) (HPC), evaluated on day 30) was 92 % of control and the T/C (dose: 200.0 mg/kg/injection, schedule: Q04DX003 (ip), vehicle: Klucel (hydroxypropylcellulose) (HPC), evaluated on day 60) was 97 [9 of 10 alive] and 141 % of control. The survivor count (dose: 200.0 mg/kg/injection, schedule: Q04DX003 (ip), vehicle: Klucel (hydroxypropylcellulose) (HPC)) was 10 of 10, the T/C (dose: 200.0 mg/kg/injection, schedule: Q04DX003 (ip), vehicle: saline) was 123 % of control and the T/C (dose: 212.0 mg/kg/injection, schedule: Q01DX001 (ip), vehicle: Klucel (hydroxypropylcellulose) (HPC), evaluated on day 5) was 106 % of control. The T/C (dose: 212.0 mg/kg/injection, schedule: Q01DX001 (ip), vehicle: Klucel (hydroxypropylcellulose) (HPC), evaluated on day 60) was 106 % of control [9 of 10 alive], the T/C (dose: 250.0 mg/kg/injection, schedule: Q04DX003 (ip), vehicle: Klucel (hydroxypropylcellulose) (HPC)) was 91 % of control [9 of 10 alive] and the T/C (dose: 250.0 mg/kg/injection, schedule: Q04DX003 (ip), vehicle: saline) was 122, 140, 150, 168 % of control. The survivor count (dose: 256.0 mg/kg/injection, schedule: Q01DX005 (ip), vehicle: water) was 10 of 10, the T/C (dose: 270.0 mg/kg/injection, schedule: Q01DX001 (ip), vehicle: Klucel (hydroxypropylcellulose) (HPC), evaluated on day 5) was 138 % of control and the T/C (dose: 270.0 mg/kg/injection, schedule: Q01DX001 (ip), vehicle: Klucel (hydroxypropylcellulose) (HPC), evaluated on day 60) was 138 % of control. For the same compound, the T/C [1] was 105 [9 of 10 alive], 128, 128 % of control [9 of 10 alive], the survivor count [1] was 9 of 10 and the T/C (dose: 300.0 mg/kg/injection, schedule: Q01DX001 (ip), vehicle: saline, evaluated on day 45) was 89 % of control. For the same compound, the T/C (dose: 300.0 mg/kg/injection, schedule: Q01DX001 (ip), vehicle: saline, evaluated on day 60) was 122, 126, 142, 144 % of control, the T/C [2] was 100 and 129 % of control and the survivor count [2] was 8 of 10. The T/C [3] was 114 % of control, the survivor count [3] was 8 of 10 and the T/C (dose: 320.0 mg/kg/injection, schedule: Q01DX001 (ip), vehicle: Klucel (hydroxypropylcellulose) (HPC), evaluated on day 5) was 177 % of control. For the same compound, the T/C (dose: 320.0 mg/kg/injection, schedule: Q01DX001 (ip), vehicle: Klucel (hydroxypropylcellulose) (HPC), evaluated on day 60) was 177 % of control, the T/C (dose: 400.0 mg/kg/injection, schedule: Q01DX001 (ip), vehicle: Klucel (hydroxypropylcellulose) (HPC), evaluated on day 5) was 146 % of control and the T/C (dose: 400.0 mg/kg/injection, schedule: Q01DX001 (ip), vehicle: Klucel (hydroxypropylcellulose) (HPC), evaluated on day 60) was 112, 115, 126 [9 of 10 alive], 146, 157 % of control [8 of 10 alive]. The survivor count (dose: 400.0 mg/kg/injection, schedule: Q01DX001 (ip), vehicle: Klucel (hydroxypropylcellulose) (HPC)) was 8 of 10 and 10 of 10, the T/C (dose: 400.0 mg/kg/injection, schedule: Q01DX001 (ip), vehicle: saline with Tween-80) was 108 % of control and the T/C (dose: 400.0 mg/kg/injection, schedule: Q01DX001 (ip), vehicle: saline) was 88, 100, 122, 150 % of control. For the same compound, the T/C (dose: 400.0 mg/kg/injection, schedule: Q01DX009 (ip), vehicle: Klucel (hydroxypropylcellulose) (HPC)) was 117 % of control, the T/C [4] was 88 % of control [9 of 10 alive] and the survivor count [4] was 9 of 10 (2×). For the same compound, the T/C (dose: 400.0 mg/kg/injection, schedule: Q04DX003 (ip), vehicle: saline) was 114 % of control, the T/C [5] was 115 [9 of 10 alive] and 117 % of control and the survivor count [5] was 7 of 10 and 10 of 10. The T/C [6] was 111 % of control, the survivor count [6] was 10 of 10 and the T/C (dose: 500.0 mg/kg/injection, schedule: Q04DX003 (ip), vehicle: Klucel (hydroxypropylcellulose) (HPC)) was 100 % of control. For the same compound, the survivor count (dose: 512.0 mg/kg/injection, schedule: Q01DX005 (ip), vehicle: water) was 2 of 10, the survivor count (dose: 600.0 mg/kg/injection, schedule: Q01DX001 (ip), vehicle: Klucel (hydroxypropylcellulose) (HPC)) was 8 of 10 and 9 of 10 and the T/C (dose: 600.0 mg/kg/injection, schedule: Q01DX001 (ip), vehicle: saline) was 119 and 144 % of control. For the same compound, the survivor count (dose: 800.0 mg/kg/injection, schedule: Q01DX001 (ip), vehicle: Klucel (hydroxypropylcellulose) (HPC)) was 9 of 10.
